Experimental findings from PubChem BioAssay AID493014 (National Center for Advancing Translational Sciences (NCATS), 2011) are described below.

This assay can be described thus: qHTS Assay to Find Inhibitors of Chronic Active B-Cell Receptor Signaling. Particulars: ABC-DLBCL IkBa-CBG/CBR reporter, luminescence ratio (green luciferase fused to IkBa over red control in TMD8 lymphoma cells), 4 h. In outline:
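Cell line TMD8 (human ABC DLBCL), stably expressing tet-inducible CBG68-IkBa fusion and CBR; IMDM/0.5% FBS; cpd up to 46 uM; dox induction, 4 h, 37C/5% CO2; dual luminescence; green/red ratio; MG132 control.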
(In general: In qHTS, concentration-response curves come from the screen itself.)

Setting [1] is: measured here: CBR red luminescence, cell number.
Where [2] appears, read: measured here: IkBa-CBG green luminescence.

The structures appear in SMILES notation. Some of the results follow. Further columns of the screen follow, without active or inactive calls. Compounds called inactive in the main read-out are mostly missing here. Potencies come from curve fits of mixed quality, noted in brackets.

Consider `Cn1cccc1C(=O)OCC(=O)c1c[nH]c2ccccc12`, for which the AC50 (in general, the midpoint of the concentration-response curve, whichever way the signal moves) under setting [1] was 18.4 µM [falling, single point].

For `Cc1ccc(NC(=O)CSc2nnc(-c3ccc(S(=O)(=O)N4CCOCC4)cc3)n2C)cc1`, under setting [1], the AC50 was 2.31 µM [rising, full curve, poor fit]. `CCOC(=O)c1c(C)[nH]c(C(=O)CSc2ccccc2)c1C`: the AC50 under setting [1] was 1.78 µM [rising, full curve, poor fit]. In the case of `Cc1cc(C(=O)OCC(=O)NCc2ccco2)c(C)n1-c1ccc(F)cc1`, the concentration at half-maximal activity (AC50) reads like this: under setting [1], 3.16 µM [rising, single point]; under setting [2], 7.94 µM [falling, partial curve]. As to `CCOC(=O)C1=C(COC(=O)c2ncc(Cl)c(Cl)c2Cl)NC(=O)NC1C` (centres undefined), the AC50 under setting [1] is 29.1 µM [falling, single point]. On the same count and under the same terms, to `O=C(OCC(=O)N1CCN(C(=O)c2ccco2)CC1)c1ccc(S(=O)(=O)N2CCCCC2)cc1` belongs 35.5 µM [rising, partial curve, poor fit]. Still for that read-out and setting: then `CNc1ncc(C(=O)c2ccc(F)cc2)s1`, with 20 µM [falling, single point].

Turning to `CCc1ccc(/C=C2\SC(=S)N(CCCC(=O)Nc3ccccn3)C2=O)cc1`, the AC50 under setting [1] was 5.01 µM [falling, partial curve]. On the same count and under the same terms, to `O=C(CSc1nc(C2CCCCC2)n(-c2ccccc2)n1)NCCN1C(=O)CSC1=O` belongs 3.66 µM [falling, partial curve, poor fit]; to `O=C(CN1CCCCCC1=O)OCc1ncc(-c2ccccc2)o1`, 10 µM [rising, partial curve]; to `CCOC(=O)N1CCC(NC(=O)c2oc3c(F)cccc3c2C)CC1`, 6.31 µM [rising, full curve, poor fit].

As for `O=C(Nc1nc2ccccc2[nH]1)c1cccc(F)c1`, under setting [1], the AC50 was 2.24 µM [falling, full curve]. Regarding `CCc1nc(NCc2ccco2)c2oc3ccccc3c2n1`, the concentration at half-maximal activity (AC50) by setting is: under setting [1], 6.31 µM [falling, full curve]; under setting [2], 17.8 µM [rising, partial curve, poor fit]. On to `COc1ccc(-c2nn(-c3ccccc3)cc2/C=N/NS(=O)(=O)c2ccccc2)cc1`, for which, under setting [1], the AC50 is 5.62 µM [rising, partial curve]. The same measure, in the same setting: to `O=C(CCn1c(SCC(=O)NCc2ccco2)nc2ccccc2c1=O)NCCc1ccccc1` belongs 10 µM [falling, partial curve, poor fit].

Consider `Cn1c(=O)c2cc(S(=O)(=O)NCCC(=O)N3CC=C(c4ccccc4)CC3)ccc2n(C)c1=O`, for which the half-maximal activity concentration (AC50) under setting [1] is 22.4 µM [falling, single point].

For `CC(Oc1ccc(Cl)cc1)C(=O)Nc1ncccn1` (centres undefined), the AC50 under setting [1] was 2.82 µM [rising, single point]. As to `COc1ccccc1NC(=O)C(=O)NCc1ccncc1`, the AC50 under setting [1] was 9.2 µM [falling, partial curve]. For the compound `O=C(CCS(=O)(=O)c1ccccc1)Nc1nc2cc3c(cc2s1)OCO3`, the AC50 under setting [2] was 3.98 µM [rising, partial curve, poor fit]. With `C=C(C)C1Cc2cc3ccc(=O)oc3cc2O1` (centres undefined), the AC50 under setting [1] is 13 µM [rising, partial curve] and the AC50 under setting [2] was 23.1 µM [falling, single point].

Consider `CN(CC(=O)Nc1nccs1)S(=O)(=O)c1ccc(F)cc1`, for which the AC50 under setting [1] is 3.66 µM [falling, full curve, poor fit]. The same measure, in the same setting: to `COc1ccc(Cn2ccc(=O)c(Cc3c(Cl)cccc3Cl)c2C)cc1` belongs 12.6 µM [falling, partial curve, poor fit]; to `CCC1=NN2C(=N)/C(=C\c3cccn3-c3ccc(Cl)cc3)C(=O)N=C2S1`, 1.41 µM [rising, full curve, poor fit]; to `Cc1ccc(C(=O)NC2CCCCC2)cc1`, 10 µM [falling, partial curve]. The same measure, in the same setting: to `Cn1c(=O)[nH]c(=O)c2c1nc(SCC(O)CO)n2Cc1ccccc1Cl` (centres undefined) belongs 10 µM [rising, partial curve, poor fit]; to `CC(C)N1CCc2c(sc(NC(=O)CCS(=O)(=O)c3ccccc3)c2C#N)C1`, 20 µM [falling, partial curve, poor fit]. On the same count and under the same terms, to `CC(=O)Nc1ccc(S(=O)(=O)N2CCN(c3ccc(C)c(Cl)c3)CC2)cc1` belongs 3.26 µM [rising, full curve, poor fit]. Turning to `CCOC(=O)c1cnc2ccc(OCC)cc2c1NCc1cccnc1`, the AC50 under setting [2] was 20.6 µM [rising, partial curve, poor fit]. Turning to `CC(=O)N1CCc2cc(S(=O)(=O)CCC(=O)NCc3ccco3)ccc21`, the AC50 under setting [1] was 20 µM [falling, partial curve, poor fit]. Same read-out and setting: then `COC(=O)c1ccc(CSc2ccc3nnc(-c4ccccc4)n3n2)o1`, with 4.61 µM [falling, full curve, poor fit]; and `Cc1c(CN(C)C)c2c(n1Cc1ccccc1)C(=O)c1ccc(Br)cc1-2`, with 29.1 µM [falling, single point]. Take `O=C(NN=C(c1ccccc1)c1ccccn1)c1ccccc1`: the concentration at half-maximal activity (AC50) reads like this: under setting [1], 25.9 µM [rising, partial curve, poor fit]; under setting [2], 18.4 µM [falling, partial curve].

As for `Cc1cccc(C(=O)O)c1[N+](=O)[O-]`, the AC50 under setting [1] was 14.6 µM [rising, partial curve, poor fit]. The same measure, in the same setting: to `Nc1ncc(Br)cc1S(=O)(=O)Nc1cc(C(F)(F)F)cc(C(F)(F)F)c1` belongs 6.31 µM [falling, full curve]; to `O=C(Oc1ccc(Cl)cc1)N1CCOCC1`, 14.1 µM [rising, single point]; to `CC(=O)Nc1nc(=O)c2ccccc2s1`, 3.16 µM [falling, partial curve, poor fit]. In the case of `COc1nc(C)ccc1-c1noc(-c2ccncc2)n1`, under setting [1], the AC50 was 1.16 µM [rising, full curve, poor fit]. Same read-out and setting: then `CCC(=O)NC(c1ccccc1)c1nc2ccccc2[nH]1` (centres undefined), with 29.1 µM [rising, partial curve, poor fit]. For `COCCN1Cc2cccc(C(=O)NC(C)CCc3ccco3)c2C1=O` (centres undefined), the AC50 under setting [1] is 20 µM [falling, partial curve, poor fit]. The same measure, in the same setting: to `O=C(CSc1ccc(Br)cc1)NC1CCS(=O)(=O)C1` (centres undefined) belongs 4.61 µM [falling, full curve].
